Structures can show the parent of a compound that is named as a salt. The list shows a part of the results. Single values are uncertain here, since repeats match poorly.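 FDA-approved drugs were each paired with colistin at one-eighth its MIC and screened against a multidrug-resistant, mcr-1-positive clinical E. coli isolate, with OD600 read after 24 h. Drug-free bacteria served as growth control, plain broth as blank. Combinations were active if OD600 dropped below 0.2.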
What follows are compounds tested on Escherichia coli 42 (mcr-1-positive clinical isolate) (assay: OD600 after 24 h growth with compound plus colistin (absorbance units (OD600)); higher = more bacterial growth (less inhibition)). Settings: first compound 25 µM; colistin concentration 0.5 ug/mL; incubation time 24 h; 37 °C.
For `CC(C)C[C@H](NC(=O)CNC(=O)c1cc(Cl)ccc1Cl)B(O)O` [Ixazomib] + CCC(C)CCCC(=O)N[C@@H](CCN)C(=O)N[C@H](C(=O)N[C@@H](CCN)C(=O)N[C@H]1CCNC(=O)[C@H]([C@@H](C)O)NC(=O)[C@H](CCN)NC(=O)[C@H](CCN)NC(=O)[C@H](CC(C)C)NC(=O)[C@@H](CC(C)C)NC(=O)[C@H](CCN)NC1=O)[C@@H](C)O [colistin], the OD600 was inactive: 1.03.
With `OCCOCCN1CCN(C(c2ccccc2)c2ccc(Cl)cc2)CC1` (centres undefined) [Hydroxyzine dihydrochloride] + CCC(C)CCCC(=O)N[C@@H](CCN)C(=O)N[C@H](C(=O)N[C@@H](CCN)C(=O)N[C@H]1CCNC(=O)[C@H]([C@@H](C)O)NC(=O)[C@H](CCN)NC(=O)[C@H](CCN)NC(=O)[C@H](CC(C)C)NC(=O)[C@@H](CC(C)C)NC(=O)[C@H](CCN)NC1=O)[C@@H](C)O [colistin] the OD600 was inactive: 1.04.
With `CN1CC(=O)N2[C@H](c3ccc4c(c3)OCO4)c3[nH]c4ccccc4c3C[C@@H]2C1=O` [Tadalafil] + CCC(C)CCCC(=O)N[C@@H](CCN)C(=O)N[C@H](C(=O)N[C@@H](CCN)C(=O)N[C@H]1CCNC(=O)[C@H]([C@@H](C)O)NC(=O)[C@H](CCN)NC(=O)[C@H](CCN)NC(=O)[C@H](CC(C)C)NC(=O)[C@@H](CC(C)C)NC(=O)[C@H](CCN)NC1=O)[C@@H](C)O [colistin] the OD600 was inactive: 0.76.
`COc1ccc(-c2ccc3cc(C(=O)O)ccc3c2)cc1C12CC3CC(CC(C3)C1)C2` [Adapalene] + CCC(C)CCCC(=O)N[C@@H](CCN)C(=O)N[C@H](C(=O)N[C@@H](CCN)C(=O)N[C@H]1CCNC(=O)[C@H]([C@@H](C)O)NC(=O)[C@H](CCN)NC(=O)[C@H](CCN)NC(=O)[C@H](CC(C)C)NC(=O)[C@@H](CC(C)C)NC(=O)[C@H](CCN)NC1=O)[C@@H](C)O [colistin] was tested, and the OD600 was inactive: 1.12.
`CCC(C)(C)C(=O)O[C@H]1C[C@@H](C)C=C2C=C[C@H](C)[C@H](CC[C@@H]3C[C@@H](O)CC(=O)O3)[C@H]21` [Simvastatin] + CCC(C)CCCC(=O)N[C@@H](CCN)C(=O)N[C@H](C(=O)N[C@@H](CCN)C(=O)N[C@H]1CCNC(=O)[C@H]([C@@H](C)O)NC(=O)[C@H](CCN)NC(=O)[C@H](CCN)NC(=O)[C@H](CC(C)C)NC(=O)[C@@H](CC(C)C)NC(=O)[C@H](CCN)NC1=O)[C@@H](C)O [colistin] was tested, and the OD600 was inactive: 0.779.
In the case of `CCCCC(=O)O[C@]1(C(=O)CO)[C@@H](C)C[C@H]2[C@@H]3CCC4=CC(=O)C=C[C@]4(C)[C@@]3(F)[C@@H](O)C[C@@]21C` [Betamethasone valerate] + CCC(C)CCCC(=O)N[C@@H](CCN)C(=O)N[C@H](C(=O)N[C@@H](CCN)C(=O)N[C@H]1CCNC(=O)[C@H]([C@@H](C)O)NC(=O)[C@H](CCN)NC(=O)[C@H](CCN)NC(=O)[C@H](CC(C)C)NC(=O)[C@@H](CC(C)C)NC(=O)[C@H](CCN)NC1=O)[C@@H](C)O [colistin], the OD600 is reported as inactive: 0.857.
`O=C(Nc1cnn2ccc(N3CCC[C@@H]3c3cc(F)ccc3F)nc12)N1CC[C@H](O)C1` [Larotrectinib] + CCC(C)CCCC(=O)N[C@@H](CCN)C(=O)N[C@H](C(=O)N[C@@H](CCN)C(=O)N[C@H]1CCNC(=O)[C@H]([C@@H](C)O)NC(=O)[C@H](CCN)NC(=O)[C@H](CCN)NC(=O)[C@H](CC(C)C)NC(=O)[C@@H](CC(C)C)NC(=O)[C@H](CCN)NC1=O)[C@@H](C)O [colistin] was tested, and the OD600 was inactive: 1.16.
In the case of `CC1=C(/C=C/C(C)=C/C=C/C(C)=C\C(=O)O)C(C)(C)CCC1` [Isotretinoin] + CCC(C)CCCC(=O)N[C@@H](CCN)C(=O)N[C@H](C(=O)N[C@@H](CCN)C(=O)N[C@H]1CCNC(=O)[C@H]([C@@H](C)O)NC(=O)[C@H](CCN)NC(=O)[C@H](CCN)NC(=O)[C@H](CC(C)C)NC(=O)[C@@H](CC(C)C)NC(=O)[C@H](CCN)NC1=O)[C@@H](C)O [colistin], the OD600 is reported as inactive: 1.07.
`C=CC[N+]1([C@H]2C[C@H]3[C@@H]4CC[C@H]5C[C@H](O)[C@@H](N6CCOCC6)C[C@]5(C)[C@H]4CC[C@]3(C)[C@H]2OC(C)=O)CCCC1` [Rocuronium bromide] + CCC(C)CCCC(=O)N[C@@H](CCN)C(=O)N[C@H](C(=O)N[C@@H](CCN)C(=O)N[C@H]1CCNC(=O)[C@H]([C@@H](C)O)NC(=O)[C@H](CCN)NC(=O)[C@H](CCN)NC(=O)[C@H](CC(C)C)NC(=O)[C@@H](CC(C)C)NC(=O)[C@H](CCN)NC1=O)[C@@H](C)O [colistin] was tested, and the OD600 was inactive: 0.941.
With `COc1cc2ncnc(Nc3ccc(F)c(Cl)c3)c2cc1NC(=O)/C=C/CN1CCCCC1` [Dacomitinib] + CCC(C)CCCC(=O)N[C@@H](CCN)C(=O)N[C@H](C(=O)N[C@@H](CCN)C(=O)N[C@H]1CCNC(=O)[C@H]([C@@H](C)O)NC(=O)[C@H](CCN)NC(=O)[C@H](CCN)NC(=O)[C@H](CC(C)C)NC(=O)[C@@H](CC(C)C)NC(=O)[C@H](CCN)NC1=O)[C@@H](C)O [colistin] the OD600 was inactive: 0.931.
`COc1c(C)c2c(c(O)c1C/C=C(\C)CCC(=O)O)C(=O)OC2` [Mycophenolic acid] + CCC(C)CCCC(=O)N[C@@H](CCN)C(=O)N[C@H](C(=O)N[C@@H](CCN)C(=O)N[C@H]1CCNC(=O)[C@H]([C@@H](C)O)NC(=O)[C@H](CCN)NC(=O)[C@H](CCN)NC(=O)[C@H](CC(C)C)NC(=O)[C@@H](CC(C)C)NC(=O)[C@H](CCN)NC1=O)[C@@H](C)O [colistin] was tested, and the OD600 was inactive: 1.08.
`Nc1ncnc2c1ncn2[C@@H]1O[C@H](CO)[C@@H](O)[C@H]1O` [Adenosine] + CCC(C)CCCC(=O)N[C@@H](CCN)C(=O)N[C@H](C(=O)N[C@@H](CCN)C(=O)N[C@H]1CCNC(=O)[C@H]([C@@H](C)O)NC(=O)[C@H](CCN)NC(=O)[C@H](CCN)NC(=O)[C@H](CC(C)C)NC(=O)[C@@H](CC(C)C)NC(=O)[C@H](CCN)NC1=O)[C@@H](C)O [colistin] was tested, and the OD600 was inactive: 1.25.
In the case of `COC(=O)[C@H]1[C@H]2C[C@@H]3c4[nH]c5cc(OC)ccc5c4CCN3C[C@H]2C[C@@H](OC(=O)c2cc(OC)c(OC)c(OC)c2)[C@@H]1OC` [Reserpine] + CCC(C)CCCC(=O)N[C@@H](CCN)C(=O)N[C@H](C(=O)N[C@@H](CCN)C(=O)N[C@H]1CCNC(=O)[C@H]([C@@H](C)O)NC(=O)[C@H](CCN)NC(=O)[C@H](CCN)NC(=O)[C@H](CC(C)C)NC(=O)[C@@H](CC(C)C)NC(=O)[C@H](CCN)NC1=O)[C@@H](C)O [colistin], the OD600 is reported as inactive: 1.11.
`CC(C)[C@H]1CC[C@H](C(=O)N[C@H](Cc2ccccc2)C(=O)O)CC1` [Nateglinide] + CCC(C)CCCC(=O)N[C@@H](CCN)C(=O)N[C@H](C(=O)N[C@@H](CCN)C(=O)N[C@H]1CCNC(=O)[C@H]([C@@H](C)O)NC(=O)[C@H](CCN)NC(=O)[C@H](CCN)NC(=O)[C@H](CC(C)C)NC(=O)[C@@H](CC(C)C)NC(=O)[C@H](CCN)NC1=O)[C@@H](C)O [colistin] was tested, and the OD600 was inactive: 1.14.
`COc1cnc(NS(=O)(=O)c2ccc(N)cc2)nc1` [Sulfameter] + CCC(C)CCCC(=O)N[C@@H](CCN)C(=O)N[C@H](C(=O)N[C@@H](CCN)C(=O)N[C@H]1CCNC(=O)[C@H]([C@@H](C)O)NC(=O)[C@H](CCN)NC(=O)[C@H](CCN)NC(=O)[C@H](CC(C)C)NC(=O)[C@@H](CC(C)C)NC(=O)[C@H](CCN)NC1=O)[C@@H](C)O [colistin] was tested, and the OD600 was inactive: 1.14.
`COc1ccc2cc(CCC(C)=O)ccc2c1` [Nabumetone] + CCC(C)CCCC(=O)N[C@@H](CCN)C(=O)N[C@H](C(=O)N[C@@H](CCN)C(=O)N[C@H]1CCNC(=O)[C@H]([C@@H](C)O)NC(=O)[C@H](CCN)NC(=O)[C@H](CCN)NC(=O)[C@H](CC(C)C)NC(=O)[C@@H](CC(C)C)NC(=O)[C@H](CCN)NC1=O)[C@@H](C)O [colistin] was tested, and the OD600 was inactive: 1.05.
For `CCn1cc(C(=O)O)c(=O)c2cc(F)c(N3CCNC(C)C3)c(F)c21` (centres undefined) [Lomefloxacin] + CCC(C)CCCC(=O)N[C@@H](CCN)C(=O)N[C@H](C(=O)N[C@@H](CCN)C(=O)N[C@H]1CCNC(=O)[C@H]([C@@H](C)O)NC(=O)[C@H](CCN)NC(=O)[C@H](CCN)NC(=O)[C@H](CC(C)C)NC(=O)[C@@H](CC(C)C)NC(=O)[C@H](CCN)NC1=O)[C@@H](C)O [colistin], the OD600 was inactive: 0.975.
`C=C1c2c(Cl)ccc(O)c2C(O)=C2C(=O)[C@]3(O)C(O)=C(C(N)=O)C(=O)[C@@H](N(C)C)[C@@H]3[C@@H](O)[C@H]12.O=C(O)c1cc(S(=O)(=O)O)ccc1O` [Meclocycline sulfosalicylate salt] + CCC(C)CCCC(=O)N[C@@H](CCN)C(=O)N[C@H](C(=O)N[C@@H](CCN)C(=O)N[C@H]1CCNC(=O)[C@H]([C@@H](C)O)NC(=O)[C@H](CCN)NC(=O)[C@H](CCN)NC(=O)[C@H](CC(C)C)NC(=O)[C@@H](CC(C)C)NC(=O)[C@H](CCN)NC1=O)[C@@H](C)O [colistin] was tested, and the OD600 was inactive: 1.1.
For `C#Cc1cccc(Nc2ncnc3cc(OCCOC)c(OCCOC)cc23)c1` [Erlotinib hydrochloride] + CCC(C)CCCC(=O)N[C@@H](CCN)C(=O)N[C@H](C(=O)N[C@@H](CCN)C(=O)N[C@H]1CCNC(=O)[C@H]([C@@H](C)O)NC(=O)[C@H](CCN)NC(=O)[C@H](CCN)NC(=O)[C@H](CC(C)C)NC(=O)[C@@H](CC(C)C)NC(=O)[C@H](CCN)NC1=O)[C@@H](C)O [colistin], the OD600 was inactive: 0.99.
